In the supplement of paper PMC10849652:
The other results are listed elsewhere or left out.

The chains behind the UniProt entries cited, without tags or fusion partners. Where a name states a change or a piece, a line headed by the entry shows the natural chain unless it says otherwise.
UniProt Q14151: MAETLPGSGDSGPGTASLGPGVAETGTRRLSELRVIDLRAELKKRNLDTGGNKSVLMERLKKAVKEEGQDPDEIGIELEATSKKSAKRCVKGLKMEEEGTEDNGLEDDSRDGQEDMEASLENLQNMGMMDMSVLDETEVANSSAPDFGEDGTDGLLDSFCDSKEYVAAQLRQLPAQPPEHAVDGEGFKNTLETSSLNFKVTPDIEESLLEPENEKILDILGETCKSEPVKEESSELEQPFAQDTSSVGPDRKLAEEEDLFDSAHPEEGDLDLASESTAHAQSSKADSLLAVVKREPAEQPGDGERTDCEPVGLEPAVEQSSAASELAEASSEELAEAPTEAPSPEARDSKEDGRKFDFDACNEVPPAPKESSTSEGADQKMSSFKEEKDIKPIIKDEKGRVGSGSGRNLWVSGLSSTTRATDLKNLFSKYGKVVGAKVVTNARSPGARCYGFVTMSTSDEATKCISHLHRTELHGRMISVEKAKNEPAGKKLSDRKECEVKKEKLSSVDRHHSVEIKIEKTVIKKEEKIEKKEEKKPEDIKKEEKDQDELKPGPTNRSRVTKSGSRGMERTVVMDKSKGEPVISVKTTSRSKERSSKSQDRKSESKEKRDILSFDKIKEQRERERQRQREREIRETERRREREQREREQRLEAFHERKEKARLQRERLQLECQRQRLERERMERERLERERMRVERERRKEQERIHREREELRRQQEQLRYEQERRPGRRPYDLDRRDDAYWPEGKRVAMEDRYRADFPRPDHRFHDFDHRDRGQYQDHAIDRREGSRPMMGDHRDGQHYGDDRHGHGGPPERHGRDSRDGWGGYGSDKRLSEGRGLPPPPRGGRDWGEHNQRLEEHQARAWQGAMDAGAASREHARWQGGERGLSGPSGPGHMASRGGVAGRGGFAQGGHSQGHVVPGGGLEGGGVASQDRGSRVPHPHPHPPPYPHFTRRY
UniProt Q9HD40: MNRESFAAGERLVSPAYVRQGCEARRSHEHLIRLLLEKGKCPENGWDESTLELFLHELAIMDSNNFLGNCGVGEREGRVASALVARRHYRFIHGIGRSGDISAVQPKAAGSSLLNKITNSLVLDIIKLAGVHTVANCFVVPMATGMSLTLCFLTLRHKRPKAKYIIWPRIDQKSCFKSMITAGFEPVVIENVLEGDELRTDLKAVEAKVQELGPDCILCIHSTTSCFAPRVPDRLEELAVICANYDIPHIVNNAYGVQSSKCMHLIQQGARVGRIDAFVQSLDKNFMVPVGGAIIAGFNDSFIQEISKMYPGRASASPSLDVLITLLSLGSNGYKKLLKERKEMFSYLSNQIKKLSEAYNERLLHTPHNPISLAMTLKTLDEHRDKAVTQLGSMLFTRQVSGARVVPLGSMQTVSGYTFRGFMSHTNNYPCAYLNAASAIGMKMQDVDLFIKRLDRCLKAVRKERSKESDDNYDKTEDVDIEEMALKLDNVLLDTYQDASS
UniProt Q9GZR1: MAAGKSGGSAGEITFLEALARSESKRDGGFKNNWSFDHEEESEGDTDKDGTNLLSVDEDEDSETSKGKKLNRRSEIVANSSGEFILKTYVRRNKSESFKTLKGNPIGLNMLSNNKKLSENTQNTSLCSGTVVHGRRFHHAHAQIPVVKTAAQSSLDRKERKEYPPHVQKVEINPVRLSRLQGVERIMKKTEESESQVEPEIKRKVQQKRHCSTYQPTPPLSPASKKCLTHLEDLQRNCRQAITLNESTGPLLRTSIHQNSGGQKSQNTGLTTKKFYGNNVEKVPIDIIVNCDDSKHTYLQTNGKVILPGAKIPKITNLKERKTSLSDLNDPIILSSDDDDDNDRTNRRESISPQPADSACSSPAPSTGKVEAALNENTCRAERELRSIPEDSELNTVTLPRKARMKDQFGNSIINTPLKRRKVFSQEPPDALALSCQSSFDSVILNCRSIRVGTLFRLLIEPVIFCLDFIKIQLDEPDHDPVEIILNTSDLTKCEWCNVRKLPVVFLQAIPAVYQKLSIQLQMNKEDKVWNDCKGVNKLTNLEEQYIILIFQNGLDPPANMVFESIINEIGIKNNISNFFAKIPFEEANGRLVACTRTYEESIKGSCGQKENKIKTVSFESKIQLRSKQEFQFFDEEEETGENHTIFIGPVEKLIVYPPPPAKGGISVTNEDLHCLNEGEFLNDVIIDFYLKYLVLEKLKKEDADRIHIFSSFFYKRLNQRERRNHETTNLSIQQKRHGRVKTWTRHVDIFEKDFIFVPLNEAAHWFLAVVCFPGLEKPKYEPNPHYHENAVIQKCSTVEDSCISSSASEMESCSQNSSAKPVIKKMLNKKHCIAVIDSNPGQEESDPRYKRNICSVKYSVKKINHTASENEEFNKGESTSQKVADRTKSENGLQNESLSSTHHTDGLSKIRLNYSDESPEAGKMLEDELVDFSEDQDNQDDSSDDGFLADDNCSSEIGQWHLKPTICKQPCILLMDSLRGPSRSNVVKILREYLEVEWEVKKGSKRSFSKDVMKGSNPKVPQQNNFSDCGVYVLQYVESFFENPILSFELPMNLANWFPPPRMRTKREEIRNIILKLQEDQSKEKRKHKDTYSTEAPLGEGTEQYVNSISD
UniProt O43290: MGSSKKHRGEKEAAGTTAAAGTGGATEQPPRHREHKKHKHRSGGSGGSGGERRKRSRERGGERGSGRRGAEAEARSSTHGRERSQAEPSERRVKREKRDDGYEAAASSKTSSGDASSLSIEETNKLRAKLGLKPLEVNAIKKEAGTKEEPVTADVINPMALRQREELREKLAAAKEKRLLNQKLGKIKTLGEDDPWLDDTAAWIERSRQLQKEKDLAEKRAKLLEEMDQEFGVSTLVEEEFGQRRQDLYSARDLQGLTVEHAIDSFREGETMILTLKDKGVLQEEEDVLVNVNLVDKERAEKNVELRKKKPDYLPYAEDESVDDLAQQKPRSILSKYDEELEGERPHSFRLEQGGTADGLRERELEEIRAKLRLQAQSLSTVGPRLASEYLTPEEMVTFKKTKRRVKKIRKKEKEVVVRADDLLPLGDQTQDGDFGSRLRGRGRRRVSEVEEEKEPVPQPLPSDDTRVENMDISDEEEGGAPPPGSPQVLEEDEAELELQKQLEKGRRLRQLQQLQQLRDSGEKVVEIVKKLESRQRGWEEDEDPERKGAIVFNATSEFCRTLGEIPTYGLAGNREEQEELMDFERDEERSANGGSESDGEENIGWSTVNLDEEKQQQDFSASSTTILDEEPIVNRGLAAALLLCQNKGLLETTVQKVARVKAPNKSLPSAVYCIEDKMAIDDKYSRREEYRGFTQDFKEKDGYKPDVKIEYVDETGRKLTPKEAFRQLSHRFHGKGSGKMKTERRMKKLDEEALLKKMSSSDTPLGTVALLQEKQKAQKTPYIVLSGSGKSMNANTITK
UniProt Q93073: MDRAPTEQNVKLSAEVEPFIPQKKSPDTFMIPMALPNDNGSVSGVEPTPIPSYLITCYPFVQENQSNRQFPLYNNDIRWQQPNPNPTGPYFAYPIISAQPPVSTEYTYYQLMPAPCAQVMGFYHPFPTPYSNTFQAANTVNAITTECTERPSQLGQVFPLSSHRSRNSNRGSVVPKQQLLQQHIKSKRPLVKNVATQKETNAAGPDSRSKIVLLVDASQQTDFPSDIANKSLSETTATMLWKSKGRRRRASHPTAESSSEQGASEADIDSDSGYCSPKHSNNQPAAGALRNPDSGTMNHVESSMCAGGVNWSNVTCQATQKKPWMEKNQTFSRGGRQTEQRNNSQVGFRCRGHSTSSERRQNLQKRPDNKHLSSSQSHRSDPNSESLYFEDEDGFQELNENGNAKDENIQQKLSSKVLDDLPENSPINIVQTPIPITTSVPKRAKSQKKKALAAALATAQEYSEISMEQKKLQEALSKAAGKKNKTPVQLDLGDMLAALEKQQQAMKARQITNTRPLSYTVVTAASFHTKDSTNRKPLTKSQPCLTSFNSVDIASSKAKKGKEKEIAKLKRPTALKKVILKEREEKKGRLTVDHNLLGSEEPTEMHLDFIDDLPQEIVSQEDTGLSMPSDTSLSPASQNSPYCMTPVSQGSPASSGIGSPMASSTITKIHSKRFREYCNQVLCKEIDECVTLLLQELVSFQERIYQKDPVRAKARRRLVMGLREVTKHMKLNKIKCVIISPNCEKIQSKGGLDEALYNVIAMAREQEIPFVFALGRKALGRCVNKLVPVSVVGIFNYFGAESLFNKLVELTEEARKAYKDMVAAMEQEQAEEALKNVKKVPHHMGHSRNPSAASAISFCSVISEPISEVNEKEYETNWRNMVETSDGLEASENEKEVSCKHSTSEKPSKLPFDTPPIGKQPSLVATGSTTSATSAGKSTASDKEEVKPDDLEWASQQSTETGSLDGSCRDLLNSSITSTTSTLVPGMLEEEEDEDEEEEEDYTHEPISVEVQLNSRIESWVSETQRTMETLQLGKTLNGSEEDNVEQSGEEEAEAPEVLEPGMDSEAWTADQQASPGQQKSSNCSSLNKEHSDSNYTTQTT
UniProt Q96EE3: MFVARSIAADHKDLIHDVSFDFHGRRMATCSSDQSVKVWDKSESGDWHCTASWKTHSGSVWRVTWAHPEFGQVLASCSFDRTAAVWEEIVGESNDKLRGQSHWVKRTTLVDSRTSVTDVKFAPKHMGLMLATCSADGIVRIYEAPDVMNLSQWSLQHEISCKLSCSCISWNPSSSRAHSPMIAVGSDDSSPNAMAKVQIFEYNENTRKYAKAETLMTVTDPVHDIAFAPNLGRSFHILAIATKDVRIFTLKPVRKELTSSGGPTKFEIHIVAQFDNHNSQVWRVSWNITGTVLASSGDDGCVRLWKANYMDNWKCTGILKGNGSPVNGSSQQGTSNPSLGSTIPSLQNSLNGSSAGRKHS
UniProt O75326: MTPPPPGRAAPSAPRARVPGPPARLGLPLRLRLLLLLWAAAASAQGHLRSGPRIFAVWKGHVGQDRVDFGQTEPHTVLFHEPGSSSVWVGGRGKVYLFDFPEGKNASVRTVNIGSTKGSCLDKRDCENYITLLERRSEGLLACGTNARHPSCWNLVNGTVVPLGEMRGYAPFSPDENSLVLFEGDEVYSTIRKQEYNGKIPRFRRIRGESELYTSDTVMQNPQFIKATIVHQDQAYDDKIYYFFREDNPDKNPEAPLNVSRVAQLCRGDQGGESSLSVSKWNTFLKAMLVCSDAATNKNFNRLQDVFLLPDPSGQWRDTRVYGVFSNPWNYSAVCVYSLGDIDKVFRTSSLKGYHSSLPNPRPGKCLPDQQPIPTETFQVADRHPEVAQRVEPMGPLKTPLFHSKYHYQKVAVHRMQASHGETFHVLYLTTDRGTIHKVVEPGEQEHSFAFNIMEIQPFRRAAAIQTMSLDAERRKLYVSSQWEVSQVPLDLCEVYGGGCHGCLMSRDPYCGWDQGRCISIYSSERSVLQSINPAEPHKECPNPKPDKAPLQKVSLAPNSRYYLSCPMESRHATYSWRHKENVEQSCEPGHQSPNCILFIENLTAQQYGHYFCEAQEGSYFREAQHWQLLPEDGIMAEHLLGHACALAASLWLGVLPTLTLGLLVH
UniProt O00422: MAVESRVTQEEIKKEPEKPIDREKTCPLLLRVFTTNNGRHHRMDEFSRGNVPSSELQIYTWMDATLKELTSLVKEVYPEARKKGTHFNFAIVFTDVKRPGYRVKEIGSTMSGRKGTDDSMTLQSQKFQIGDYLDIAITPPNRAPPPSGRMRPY
UniProt O14828: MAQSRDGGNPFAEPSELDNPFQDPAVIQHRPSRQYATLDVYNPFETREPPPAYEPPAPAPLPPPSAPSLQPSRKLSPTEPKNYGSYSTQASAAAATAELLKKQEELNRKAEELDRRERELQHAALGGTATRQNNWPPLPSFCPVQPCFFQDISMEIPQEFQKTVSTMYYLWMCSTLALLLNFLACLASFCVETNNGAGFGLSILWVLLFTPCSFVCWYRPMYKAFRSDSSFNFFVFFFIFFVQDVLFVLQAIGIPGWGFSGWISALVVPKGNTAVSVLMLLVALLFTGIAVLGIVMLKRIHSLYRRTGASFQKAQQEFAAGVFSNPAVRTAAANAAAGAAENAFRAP
UniProt Q92599: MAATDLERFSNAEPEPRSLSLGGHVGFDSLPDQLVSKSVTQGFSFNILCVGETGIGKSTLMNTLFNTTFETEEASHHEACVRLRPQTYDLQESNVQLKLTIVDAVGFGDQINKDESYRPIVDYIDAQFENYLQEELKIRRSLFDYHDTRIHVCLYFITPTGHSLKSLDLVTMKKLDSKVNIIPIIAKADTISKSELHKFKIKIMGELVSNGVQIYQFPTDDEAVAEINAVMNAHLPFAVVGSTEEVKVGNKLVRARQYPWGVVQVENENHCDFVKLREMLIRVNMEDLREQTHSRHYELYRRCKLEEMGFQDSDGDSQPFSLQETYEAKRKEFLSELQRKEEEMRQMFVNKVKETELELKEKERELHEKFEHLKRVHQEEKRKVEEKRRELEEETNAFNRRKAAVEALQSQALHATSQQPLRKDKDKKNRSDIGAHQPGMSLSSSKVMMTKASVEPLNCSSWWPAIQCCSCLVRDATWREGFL

Tests used:
Test in all cases: log2 fold change, soluble protein after heating vs DMSO (PISA); higher = thermal stabilisation; K562 lysate, 10 uM; active = over 0.2 and 3.5 SD of the protein, either way, in both replicates (recomputed)
erlotinib = compound: C#Cc1cccc(Nc2ncnc3cc(OCCOC)c(OCCOC)cc23)c1 [erlotinib]
How it was run: (§1)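 The values are log-two fold changes in thermal stability compared with solvent controls and come from duplicates. They were obtained by TMTpro 16plex LC-MS/MS, with channel sums equalised, on the supernatant after 21,000xg for 90 min. That supernatant came from crude K562 extract at 1 mg/mL protein treated with 10 μM compound for 30 min, heated for 3 min across 48°C-58°C, pooled and brought to 0.5% NP-40 at 4°C.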

[1] = compound: C/C(=N\NC(=O)C1=CC(=CC=C1)S(=O)(=O)N2CCOCC2)/C3=C(C=CC(=C3)Cl)O
How it was run: as §1

[2] = compound: C1=CC(=CC=C1C2=NC3=C(N2)C=C(C=C3)C(=O)N)OC4=CC=C(C=C4)Cl
How it was run: as §1

[3] = compound: C1=CC2=C(C=CC(=C2)/C=C\3/C(=O)NC(=NCC4=CC=CS4)S3)N=C1
How it was run: as §1

[4] = compound: C1=CC2=NC=CN=C2C=C1/C=C/3\C(=O)NC(=O)S3
How it was run: as §1

[5] = compound: C1=CC=C(C=C1)C2=NC(=C(N2)C3=CC=NC=C3)C4=CC(=C(C=C4)Cl)O
How it was run: as §1

[6] = compound: C1=CC=C2C(=C1)C3=NNC4=CC=CC(=C43)C2=O
How it was run: as §1

[7] = compound: C1CCN(C1)C(=O)NC2=CC=CC(=C2)NC3=NC=C(C(=N3)NCCC4=CN=CN4)Br
How it was run: as §1

[8] = compound: C1CN(CCC1(CC2=CC=C(C=C2)Cl)N)C3=NC=NC4=C3C=CN4
How it was run: as §1

IRAK-1-4 Inhibitor I = compound: C1COCCN1CCN2C3=CC=CC=C3N=C2NC(=O)C4=CC(=CC=C4)[N+](=O)[O-] [IRAK-1-4 Inhibitor I]
How it was run: as §1

ibrutinib = compound: C=CC(=O)N1CCC[C@@H](n2nc(-c3ccc(Oc4ccccc4)cc3)c3c(N)ncnc32)C1 [ibrutinib]
How it was run: as §1

[9] = compound: CC(=O)c1cnc2ccc(-c3cc(Cl)c(O)c(Cl)c3)nc2c1N[C@H]1CC[C@H](CN(C)C)CC1
How it was run: as §1

ralimetinib = compound: CC(C)(C)Cn1c(N)nc2ccc(-c3[nH]c(C(C)(C)C)nc3-c3ccc(F)cc3)nc21 [ralimetinib]
How it was run: as §1

[10] = compound: CC(C)(O)CC(=O)NCCn1ccc2ncnc(Nc3ccc(Oc4cccc(C(F)(F)F)c4)c(Cl)c3)c21
How it was run: as §1

[11] = compound: CC(C)C1=C2N=C(C=C(N2N=C1)NCC3=CC=CC=C3)NCCCCCCN
How it was run: as §1

[12] = compound: CC1=C(C(CC(=O)N1)C2=CC=C(C=C2)C(F)(F)F)C(=O)NC3=C(C=C4C(=C3)C=NN4)F
How it was run: as §1

[13] = compound: CC1=C(C2=C(C=C1)C(=O)C3=CC=CC=C3N2CCCN)C
How it was run: as §1

[14] = compound: CC1=C(C=C(C=C1)NC(=O)C2=CC(=CC=C2)C(C)(C)C#N)NC3=CC4=C(C=C3)N=CN(C4=O)C
How it was run: as §1

[15] = compound: CC1=C(C=C(C=C1)NC(=O)C2=CC(=CC=C2)N(C)C)NC(=O)C3=CC=C(C=C3)O
How it was run: as §1

[16] = compound: CC1=CC=C(C=C1)SC2=C3C=C(SC3=CN=C2)C(=O)N
How it was run: as §1

Measured: log2 fold change

SAFB2 (UniProt Q14151)
inactive: erlotinib -0.002 | [1] -0.03 | [2] 0.003 | [3] 0.002 | [4] 0.017 | [5] 0.02 | [6] 0.004 | [7] -0.018 | [8] -0.027 | IRAK-1-4 Inhibitor I -0.012 | ibrutinib 0.037 | [9] -0.008 | ralimetinib -0.02 | [10] -0.021 | [11] 0.025 | [12] 0.012 | [13] -0.011 | [14] 0.005 | [15] 0.002 | [16] -0.013

SEPHS1 (UniProt P49903)
inactive: erlotinib -0.002 | [1] -0.015 | [2] 0.032 | [3] -0.036 | [4] 0.003 | [5] 0.015 | [6] 0.003 | [7] 0.01 | [8] 0.042 | IRAK-1-4 Inhibitor I 0.034 | ibrutinib 0.005 | [9] 0.012 | ralimetinib -0.007 | [10] -0.017 | [11] -0.018 | [12] -0.004 | [13] -0.018 | [14] 0.026 | [15] -0.006 | [16] 0.002

SCAP (UniProt Q12770)
inactive: erlotinib 0.161 | [1] 0.14 | [2] -0.219 | [3] -0.071 | [4] 0.044 | [5] 0.023 | [6] -0.195 | [7] 0 | [8] 0.083 | IRAK-1-4 Inhibitor I -0.013 | ibrutinib -0.084 | [9] 0.013 | ralimetinib 0.03 | [10] 0.032 | [11] -0.029 | [12] 0.062 | [13] -0.074 | [14] -0.051 | [15] -0.001 | [16] 0.168

SEPSECS (UniProt Q9HD40)
inactive: erlotinib 0.024 | [1] 0.48 | [2] 0.033 | [3] -0.01 | [4] 0.012 | [5] -0.024 | [6] 0.019 | [7] 0.026 | [8] 0.026 | IRAK-1-4 Inhibitor I 0 | ibrutinib 0.008 | [9] -0.015 | ralimetinib 0.039 | [10] -0.016 | [11] -0.011 | [12] 0.033 | [13] -0.013 | [14] -0.004 | [15] 0.001 | [16] -0.026

SENP6 (UniProt Q9GZR1)
inactive: erlotinib 0.131 | [1] -0.464 | [2] -0.002 | [3] 0.039 | [4] -0.026 | [5] 0.043 | [6] -0.057 | [7] -0.047 | [8] 0.034 | IRAK-1-4 Inhibitor I 0.011 | ibrutinib 0.011 | [9] 0.044 | ralimetinib 0 | [10] -0.015 | [11] -0.017 | [12] 0.05 | [13] -0.035 | [14] 0.022 | [15] 0.013 | [16] -0.094

SART1 (UniProt O43290)
inactive: erlotinib -0.006 | [1] -0.072 | [2] -0.01 | [3] -0.002 | [4] 0 | [5] 0.014 | [6] 0.014 | [7] -0.001 | [8] -0.021 | IRAK-1-4 Inhibitor I 0.007 | ibrutinib 0.025 | [9] 0 | ralimetinib -0.026 | [10] -0.013 | [11] 0.031 | [12] -0.005 | [13] -0.043 | [14] 0.026 | [15] -0.016 | [16] -0.014

SAFB isoform 3 (UniProt Q15424)
inactive: erlotinib 0.001 | [1] -0.039 | [2] 0.058 | [3] -0.037 | [4] 0.008 | [5] 0.021 | [6] -0.043 | [7] -0.001 | [8] -0.027 | IRAK-1-4 Inhibitor I -0.006 | ibrutinib 0.044 | [9] 0.012 | ralimetinib -0.063 | [10] -0.006 | [11] -0.017 | [12] -0.012 | [13] -0.02 | [14] -0.011 | [15] -0.018 | [16] -0.046

SECISBP2L (UniProt Q93073)
inactive: erlotinib 0.088 | [1] -0.013 | [2] 0.023 | [3] 0.097 | [4] -0.358 | [5] 0.008 | [6] 0.144 | [7] 0.121 | [8] 0.077 | IRAK-1-4 Inhibitor I 0.12 | ibrutinib -0.091 | [9] -0.016 | ralimetinib -0.024 | [10] 0.021 | [11] 0.014 | [12] -0.062 | [13] -0.172 | [14] -0.057 | [15] 0.027 | [16] 0.074

Copied from the listing (four entries):
SEPSECS (UniProt Q9HD40)
inactive: erlotinib 0.024 | [1] 0.48 | [2] 0.033 | [3] -0.01 | [4] 0.012 | [5] -0.024 | [6] 0.019 | [7] 0.026 | [8] 0.026 | IRAK-1-4 Inhibitor I 0 | ibrutinib 0.008 | [9] -0.015 | ralimetinib 0.039 | [10] -0.016 | [11] -0.011 | [12] 0.033 | [13] -0.013 | [14] -0.004 | [15] 0.001 | [16] -0.026

SENP6 (UniProt Q9GZR1)
inactive: erlotinib 0.131 | [1] -0.464 | [2] -0.002 | [3] 0.039 | [4] -0.026 | [5] 0.043 | [6] -0.057 | [7] -0.047 | [8] 0.034 | IRAK-1-4 Inhibitor I 0.011 | ibrutinib 0.011 | [9] 0.044 | ralimetinib 0 | [10] -0.015 | [11] -0.017 | [12] 0.05 | [13] -0.035 | [14] 0.022 | [15] 0.013 | [16] -0.094

SART1 (UniProt O43290)
inactive: erlotinib -0.006 | [1] -0.072 | [2] -0.01 | [3] -0.002 | [4] 0 | [5] 0.014 | [6] 0.014 | [7] -0.001 | [8] -0.021 | IRAK-1-4 Inhibitor I 0.007 | ibrutinib 0.025 | [9] 0 | ralimetinib -0.026 | [10] -0.013 | [11] 0.031 | [12] -0.005 | [13] -0.043 | [14] 0.026 | [15] -0.016 | [16] -0.014

SAFB isoform 3 (UniProt Q15424)
inactive: erlotinib 0.001 | [1] -0.039 | [2] 0.058 | [3] -0.037 | [4] 0.008 | [5] 0.021 | [6] -0.043 | [7] -0.001 | [8] -0.027 | IRAK-1-4 Inhibitor I -0.006 | ibrutinib 0.044 | [9] 0.012 | ralimetinib -0.063 | [10] -0.006 | [11] -0.017 | [12] -0.012 | [13] -0.02 | [14] -0.011 | [15] -0.018 | [16] -0.046

Continued.

SBF1 isoform 4 (UniProt O95248)
inactive: erlotinib 0.033 | [1] -0.059 | [2] 0.042 | [3] -0.052 | [4] -0.005 | [5] -0.027 | [6] -0.029 | [7] 0.028 | [8] -0.026 | IRAK-1-4 Inhibitor I -0.002 | ibrutinib 0.086 | [9] 0.116 | ralimetinib 0 | [10] -0.021 | [11] -0.079 | [12] 0.045 | [13] -0.039 | [14] -0.012 | [15] 0.054 | [16] 0.079

SEH1L isoform 1 (UniProt Q96EE3)
inactive: erlotinib -0.008 | [1] 0.082 | [2] -0.001 | [3] -0.023 | [4] 0.014 | [5] -0.015 | [6] -0.012 | [7] -0.025 | [8] 0.026 | IRAK-1-4 Inhibitor I 0.031 | ibrutinib 0.013 | [9] -0.024 | ralimetinib -0.011 | [10] -0.008 | [11] 0.005 | [12] -0.021 | [13] -0.014 | [14] 0.015 | [15] 0.017 | [16] -0.014

SEMA7A (UniProt O75326)
inactive: erlotinib -0.001 | [1] -0.035 | [2] 0.074 | [3] -0.007 | [4] -0.075 | [5] -0.079 | [6] -0.079 | [7] -0.149 | [8] 0.107 | IRAK-1-4 Inhibitor I 0.029 | ibrutinib 0.009 | [9] -0.015 | ralimetinib -0.012 | [10] 0.025 | [11] -0.15 | [12] 0.041 | [13] 0.051 | [14] 0.035 | [15] 0.034 | [16] 0.037

SEC24A (UniProt O95486)
inactive: erlotinib 0.042 | [1] 0.044 | [2] 0.059 | [3] 0.047 | [4] -0.015 | [5] -0.03 | [6] -0.032 | [7] -0.013 | [8] -0.005 | IRAK-1-4 Inhibitor I -0.01 | ibrutinib -0.029 | [9] -0.012 | ralimetinib -0.005 | [10] -0.024 | [11] -0.016 | [12] 0.008 | [13] 0.016 | [14] 0.002 | [15] 0.031 | [16] 0.002

SAP18 isoform 2 (UniProt O00422)
inactive: erlotinib 0.011 | [1] -0.018 | [2] -0.036 | [3] 0.014 | [4] -0.004 | [5] 0.004 | [6] 0.016 | [7] 0 | [8] -0.009 | IRAK-1-4 Inhibitor I 0.017 | ibrutinib 0.026 | [9] -0.006 | ralimetinib 0.031 | [10] -0.035 | [11] 0.04 | [12] 0.03 | [13] -0.049 | [14] 0.005 | [15] 0 | [16] 0.039

SDHAF2 (UniProt Q9NX18)
inactive: erlotinib 0.057 | [1] -0.055 | [2] 0.018 | [3] -0.006 | [4] -0.114 | [5] -0.02 | [6] -0.007 | [7] 0.009 | [8] 0.015 | IRAK-1-4 Inhibitor I 0.044 | ibrutinib 0.096 | [9] 0.019 | ralimetinib -0.04 | [10] -0.08 | [11] -0.02 | [12] -0.003 | [13] -0.011 | [14] 0.06 | [15] 0.015 | [16] 0.012

SCAMP3 (UniProt O14828)
inactive: erlotinib -0.042 | [1] 0.07 | [2] -0.014 | [3] 0.014 | [4] -0.024 | [5] -0.012 | [6] -0.003 | [7] 0.009 | [8] -0.01 | IRAK-1-4 Inhibitor I -0.008 | ibrutinib -0.012 | [9] -0.015 | ralimetinib -0.025 | [10] 0 | [11] -0.049 | [12] 0.007 | [13] 0.02 | [14] -0.006 | [15] -0.007 | [16] 0.012

SEPTIN8 (UniProt Q92599)
inactive: erlotinib 0.042 | [1] -0.11 | [2] 0 | [3] -0.016 | [4] -0.009 | [5] 0.006 | [6] 0.057 | [7] 0.01 | [8] 0.001 | IRAK-1-4 Inhibitor I -0.009 | ibrutinib 0.004 | [9] -0.005 | ralimetinib 0.025 | [10] -0.007 | [11] -0.008 | [12] -0.029 | [13] 0.008 | [14] -0.043 | [15] -0.045 | [16] -0.004
